Results as given in the supplement of paper PMC4604168 (melanoma cell lines).
The list shows a part of the results. Single values are uncertain, as repeats are few or missing.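 Imaging used 1,536-well plates; nuclei positive for cleaved PARP by antibody were divided by total DNA-stained nuclei to yield the apoptosis fraction. Doses for screening kept most cells viable, and cell lines differ markedly in resting and induced cleaved-PARP levels.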

Assays:
Experiment in all cases: cleaved PARP positive nuclei fraction relative to DMSO control; melanoma cells; higher = more apoptosis
Details in all cases: library dose: low library concentration; 72 h
[1] = tested on: 501Mel
[2] = tested on: A101D
[3] = tested on: A2058
[4] = tested on: A375
[5] = tested on: C32
[6] = tested on: CBRC008 (line from a melanoma biopsy)
[7] = tested on: CBRC013 (line from a melanoma biopsy)
[8] = tested on: CBRC014 (line from a melanoma biopsy)
[9] = tested on: CBRC016 (line from a melanoma biopsy)
[10] = tested on: CBRC017 (line from a melanoma biopsy)
[11] = tested on: COLO792
[12] = tested on: COLO800
[13] = tested on: COLO829
[14] = tested on: G361
[15] = tested on: IPC-298
[16] = tested on: IST-MEL1
[17] = tested on: LB2518-MEL
[18] = tested on: LOXIMVI
[19] = tested on: MEL-HO
[20] = tested on: CBRC034 (line from a melanoma biopsy)

SMILES	cleaved PARP positive nuclei fraction [1]	cleaved PARP positive nuclei fraction [2]	cleaved PARP positive nuclei fraction [3]	cleaved PARP positive nuclei fraction [4]	cleaved PARP positive nuclei fraction [5]	cleaved PARP positive nuclei fraction [6]	cleaved PARP positive nuclei fraction [7]	cleaved PARP positive nuclei fraction [8]	cleaved PARP positive nuclei fraction [9]	cleaved PARP positive nuclei fraction [10]	cleaved PARP positive nuclei fraction [11]	cleaved PARP positive nuclei fraction [12]	cleaved PARP positive nuclei fraction [13]	cleaved PARP positive nuclei fraction [14]	cleaved PARP positive nuclei fraction [15]	cleaved PARP positive nuclei fraction [16]	cleaved PARP positive nuclei fraction [17]	cleaved PARP positive nuclei fraction [18]	cleaved PARP positive nuclei fraction [19]	cleaved PARP positive nuclei fraction [20]
C=C(c1ccc(C(=O)O)cc1)c1cc2c(cc1C)C(C)(C)CCC2(C)C [Bexarotene] + CN(C)S(=O)(=O)c1ccc2c(c1)/C(=C/c1cc3c([nH]1)CCCC3)C(=O)N2 [SU6656] (first compound 2 µM, partner dose 0.4 µM)	86.1%	80.5%	46.7%	40.1%	28.7%	216%	163%	113%	67%	125%	76.6%	137%	170%	57%	21.4%	209%	80.5%	33.4%	294%	
CS(=O)(=O)CCNCc1ccc(-c2ccc3ncnc(Nc4ccc(OCc5cccc(F)c5)c(Cl)c4)c3c2)o1 [lapatinib] + CC(C)(C)c1cnc(CSc2cnc(NC(=O)C3CCNCC3)s2)o1 [SNS-032] (first compound 0.8 µM, partner dose 0.01 µM)	167%	47.8%	36.5%	54.2%	68.5%	449%	130%	91.9%	20.4%	135%	189%	73.8%	92.3%	103%	43.2%	96.9%	43.7%	108%	136%	
CCCS(=O)(=O)Nc1ccc(F)c(C(=O)c2c[nH]c3ncc(Cl)cc23)c1F + OCCn1cc(-c2cnc3nnn(Cc4ccc5ncccc5c4)c3n2)cn1 [PF04217903] (first compound 0.08 µM, partner dose 1 µM)	111%	77.2%	87.7%	275%	29.9%	111%	119%	93.2%	57%	93.1%	49.9%	81.4%	150%	152%	43.1%	97.6%	87.6%	66.5%	73.7%	
CNC(=O)c1cc(Oc2ccc(NC(=O)Nc3ccc(Cl)c(C(F)(F)F)c3)cc2)ccn1 [sorafenib] + COc1cc2c(Oc3ccc4[nH]c(C)cc4c3F)ncnc2cc1OCCCN1CCCC1 [cediranib] (first compound 0.4 µM, partner dose 0.4 µM)	179%	60.5%	108%	11%	206%	104%	110%	90.1%	103%	104%	25.1%	96%	93.8%	116%	99.1%	248%	85.9%	44.8%	117%	
CO[C@H]1C[C@@H]2CC[C@@H](C)[C@@](O)(O2)C(=O)C(=O)N2CCCC[C@H]2C(=O)O[C@H]([C@H](C)C[C@@H]2CC[C@@H](OCCO)[C@H](OC)C2)CC(=O)[C@H](C)/C=C(\C)[C@@H](O)[C@@H](OC)C(=O)[C@H](C)C[C@H](C)/C=C/C=C/C=C/1C [everolimus] + COc1cc(Nc2ncc(F)c(Nc3ccc4c(n3)NC(=O)C(C)(C)O4)n2)cc(OC)c1OC [Tamatinib] (first compound 0.02 µM, partner dose 0.4 µM)	580%	185%	367%	290%	154%	739%	120%	91.8%	71.3%	116%	239%	199%	234%	88.8%	160%	186%	276%	93.4%	198%	
CO[C@H]1C[C@@H]2CC[C@@H](C)[C@@](O)(O2)C(=O)C(=O)N2CCCC[C@H]2C(=O)O[C@H]([C@H](C)C[C@@H]2CC[C@@H](OCCO)[C@H](OC)C2)CC(=O)[C@H](C)/C=C(\C)[C@@H](O)[C@@H](OC)C(=O)[C@H](C)C[C@H](C)/C=C/C=C/C=C/1C [everolimus] + Nc1ccn([C@@H]2O[C@H](CO)[C@@H](O)C2(F)F)c(=O)n1 [gemcitabine] (first compound 0.02 µM, partner dose 0.0004 µM)	504%	78.6%	207%	975%	80.5%	133%		174%	214%	131%	113%	84.1%	116%	163%	47%	213%	267%	94.7%	138%	212%
Nc1ccn([C@@H]2O[C@H](CO)[C@@H](O)C2(F)F)c(=O)n1 [gemcitabine] + Cn1c(Nc2ccc(C(F)(F)F)cc2)nc2cc(Oc3ccnc(-c4ncc(C(F)(F)F)[nH]4)c3)ccc21 [CHIR265] (first compound 0.0004 µM, partner dose 0.08 µM)	111%	139%	259%	117%	81.7%	272%		175%	241%	112%	156%	62.4%	100%	201%	219%	155%	326%	68.7%	85.4%	140%
Nc1ccn([C@@H]2O[C@H](CO)[C@@H](O)C2(F)F)c(=O)n1 [gemcitabine] + C[C@@H]1CCN(C(=O)CC#N)C[C@@H]1N(C)c1ncnc2[nH]ccc12 [CP690550] (first compound 0.0004 µM, partner dose 1 µM)	40.4%	85.4%	80.1%	94.2%	128%	76.1%	95.7%	138%	239%	251%	118%	177%	102%	160%	62.9%	143%	23.6%	63.9%	90.2%	
